This is an account of results in the supplement of paper PMC10849652.

Amino acid sequences for entries named in this document (tags omitted). A change or cut given only in a name is not applied to a line headed by its entry.
UniProt P00352: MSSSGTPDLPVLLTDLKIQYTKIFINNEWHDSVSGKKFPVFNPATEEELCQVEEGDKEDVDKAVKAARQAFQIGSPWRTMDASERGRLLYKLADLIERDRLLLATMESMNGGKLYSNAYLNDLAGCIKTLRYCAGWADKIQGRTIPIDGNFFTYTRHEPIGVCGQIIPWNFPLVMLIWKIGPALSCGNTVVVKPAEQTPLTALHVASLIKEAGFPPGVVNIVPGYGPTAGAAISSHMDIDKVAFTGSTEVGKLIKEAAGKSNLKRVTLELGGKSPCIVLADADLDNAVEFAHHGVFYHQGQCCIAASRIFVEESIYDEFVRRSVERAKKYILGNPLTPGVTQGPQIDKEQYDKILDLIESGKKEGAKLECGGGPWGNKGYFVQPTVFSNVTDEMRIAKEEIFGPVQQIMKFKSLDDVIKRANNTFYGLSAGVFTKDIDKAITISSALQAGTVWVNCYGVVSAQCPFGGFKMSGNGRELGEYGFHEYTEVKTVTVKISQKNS
UniProt P16157: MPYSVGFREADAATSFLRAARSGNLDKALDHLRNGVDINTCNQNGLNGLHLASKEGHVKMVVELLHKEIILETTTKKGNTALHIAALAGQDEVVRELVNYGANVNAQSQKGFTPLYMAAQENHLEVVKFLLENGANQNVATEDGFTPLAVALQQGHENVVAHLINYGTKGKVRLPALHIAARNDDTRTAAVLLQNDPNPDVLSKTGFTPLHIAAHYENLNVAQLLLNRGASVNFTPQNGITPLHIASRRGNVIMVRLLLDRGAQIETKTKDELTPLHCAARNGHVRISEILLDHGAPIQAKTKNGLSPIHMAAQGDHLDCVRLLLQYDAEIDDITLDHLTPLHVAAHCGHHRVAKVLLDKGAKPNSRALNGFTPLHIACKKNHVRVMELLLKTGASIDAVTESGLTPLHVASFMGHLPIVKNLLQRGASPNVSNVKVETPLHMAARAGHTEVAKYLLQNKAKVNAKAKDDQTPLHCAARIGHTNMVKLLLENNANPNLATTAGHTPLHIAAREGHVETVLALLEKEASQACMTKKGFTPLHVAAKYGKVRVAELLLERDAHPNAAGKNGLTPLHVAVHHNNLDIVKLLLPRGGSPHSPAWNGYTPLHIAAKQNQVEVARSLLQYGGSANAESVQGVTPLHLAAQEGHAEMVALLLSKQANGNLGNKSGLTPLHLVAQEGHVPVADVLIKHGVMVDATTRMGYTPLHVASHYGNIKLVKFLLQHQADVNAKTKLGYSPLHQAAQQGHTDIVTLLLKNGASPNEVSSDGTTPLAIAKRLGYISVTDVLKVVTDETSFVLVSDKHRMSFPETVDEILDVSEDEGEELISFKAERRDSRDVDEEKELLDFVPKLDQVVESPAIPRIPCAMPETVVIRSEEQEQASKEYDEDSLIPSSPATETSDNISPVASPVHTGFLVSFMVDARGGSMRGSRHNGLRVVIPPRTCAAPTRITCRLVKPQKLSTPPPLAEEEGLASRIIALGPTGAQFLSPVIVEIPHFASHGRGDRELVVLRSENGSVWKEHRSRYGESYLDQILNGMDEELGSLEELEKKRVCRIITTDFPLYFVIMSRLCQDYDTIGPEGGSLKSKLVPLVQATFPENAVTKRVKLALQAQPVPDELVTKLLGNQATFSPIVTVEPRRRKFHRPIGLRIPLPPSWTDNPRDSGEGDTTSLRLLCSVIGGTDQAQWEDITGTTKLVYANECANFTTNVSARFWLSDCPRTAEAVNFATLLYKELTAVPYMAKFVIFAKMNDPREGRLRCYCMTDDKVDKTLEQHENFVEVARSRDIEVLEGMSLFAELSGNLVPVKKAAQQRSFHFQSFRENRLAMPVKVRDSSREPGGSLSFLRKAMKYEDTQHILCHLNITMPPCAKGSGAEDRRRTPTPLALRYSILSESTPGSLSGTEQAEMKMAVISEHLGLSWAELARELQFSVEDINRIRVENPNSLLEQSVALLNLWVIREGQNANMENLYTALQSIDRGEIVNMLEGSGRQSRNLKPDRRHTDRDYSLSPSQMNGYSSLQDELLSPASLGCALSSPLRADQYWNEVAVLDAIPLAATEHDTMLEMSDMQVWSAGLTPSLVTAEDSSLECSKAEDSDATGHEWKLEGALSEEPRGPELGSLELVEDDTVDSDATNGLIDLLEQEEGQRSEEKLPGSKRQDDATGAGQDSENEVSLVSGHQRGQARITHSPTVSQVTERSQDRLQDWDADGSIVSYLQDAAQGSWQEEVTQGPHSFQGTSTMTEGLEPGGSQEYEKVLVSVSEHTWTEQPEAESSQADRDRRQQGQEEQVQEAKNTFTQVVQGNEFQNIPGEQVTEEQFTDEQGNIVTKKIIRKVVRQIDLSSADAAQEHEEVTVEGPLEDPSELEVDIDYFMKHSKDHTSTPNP
UniProt Q92572: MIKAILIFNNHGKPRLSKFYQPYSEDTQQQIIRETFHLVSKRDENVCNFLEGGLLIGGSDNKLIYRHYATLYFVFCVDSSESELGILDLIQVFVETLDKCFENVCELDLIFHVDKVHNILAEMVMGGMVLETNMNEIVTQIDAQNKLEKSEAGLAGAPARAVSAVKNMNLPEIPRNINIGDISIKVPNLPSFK
UniProt O15084: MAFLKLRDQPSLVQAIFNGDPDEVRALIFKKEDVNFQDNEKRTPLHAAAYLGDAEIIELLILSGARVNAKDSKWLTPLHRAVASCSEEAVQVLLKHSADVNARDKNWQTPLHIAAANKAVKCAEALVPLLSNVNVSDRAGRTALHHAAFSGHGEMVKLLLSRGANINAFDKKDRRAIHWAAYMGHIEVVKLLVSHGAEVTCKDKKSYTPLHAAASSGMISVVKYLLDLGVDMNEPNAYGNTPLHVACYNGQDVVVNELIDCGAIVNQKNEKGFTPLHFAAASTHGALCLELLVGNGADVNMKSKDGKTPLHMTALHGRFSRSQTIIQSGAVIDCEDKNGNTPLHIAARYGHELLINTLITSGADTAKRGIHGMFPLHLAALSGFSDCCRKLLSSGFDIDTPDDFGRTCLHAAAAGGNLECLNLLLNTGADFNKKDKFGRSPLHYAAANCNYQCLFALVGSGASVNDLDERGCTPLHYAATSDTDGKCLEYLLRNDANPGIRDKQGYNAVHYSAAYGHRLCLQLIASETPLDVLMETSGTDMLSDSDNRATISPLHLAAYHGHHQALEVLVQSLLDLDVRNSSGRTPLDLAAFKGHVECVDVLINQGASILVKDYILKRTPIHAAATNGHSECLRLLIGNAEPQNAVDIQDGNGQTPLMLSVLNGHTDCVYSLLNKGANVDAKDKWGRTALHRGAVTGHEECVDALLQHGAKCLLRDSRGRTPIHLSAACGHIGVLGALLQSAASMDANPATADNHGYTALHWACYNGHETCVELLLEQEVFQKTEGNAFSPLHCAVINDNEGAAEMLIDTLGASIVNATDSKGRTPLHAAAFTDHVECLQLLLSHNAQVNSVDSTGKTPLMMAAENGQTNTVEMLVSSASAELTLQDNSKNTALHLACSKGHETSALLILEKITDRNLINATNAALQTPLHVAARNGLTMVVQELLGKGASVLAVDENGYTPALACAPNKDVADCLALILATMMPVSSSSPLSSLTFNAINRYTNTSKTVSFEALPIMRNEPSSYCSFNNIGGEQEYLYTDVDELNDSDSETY
UniProt Q9UJX5, whole entry, looked up: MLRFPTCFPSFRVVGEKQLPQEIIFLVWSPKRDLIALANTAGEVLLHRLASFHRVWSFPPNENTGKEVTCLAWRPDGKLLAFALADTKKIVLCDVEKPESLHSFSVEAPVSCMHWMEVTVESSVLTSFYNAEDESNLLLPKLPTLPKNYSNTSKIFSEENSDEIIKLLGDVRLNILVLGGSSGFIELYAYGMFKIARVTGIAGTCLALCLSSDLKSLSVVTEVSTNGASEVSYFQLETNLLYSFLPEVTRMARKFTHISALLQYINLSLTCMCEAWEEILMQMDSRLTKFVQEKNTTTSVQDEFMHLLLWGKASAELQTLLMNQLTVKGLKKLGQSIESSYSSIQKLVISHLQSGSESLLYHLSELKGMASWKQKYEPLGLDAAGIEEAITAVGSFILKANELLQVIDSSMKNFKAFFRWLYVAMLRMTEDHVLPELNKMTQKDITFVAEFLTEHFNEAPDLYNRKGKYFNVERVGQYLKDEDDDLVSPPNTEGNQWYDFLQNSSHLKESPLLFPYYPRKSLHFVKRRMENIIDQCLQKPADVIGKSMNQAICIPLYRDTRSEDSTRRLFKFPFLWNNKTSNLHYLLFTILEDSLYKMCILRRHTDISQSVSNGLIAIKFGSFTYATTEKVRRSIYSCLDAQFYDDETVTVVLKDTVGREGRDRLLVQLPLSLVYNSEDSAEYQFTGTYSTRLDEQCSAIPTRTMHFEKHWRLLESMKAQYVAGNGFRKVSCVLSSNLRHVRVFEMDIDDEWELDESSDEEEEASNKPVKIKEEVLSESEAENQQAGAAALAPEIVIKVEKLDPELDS
UniProt P53680: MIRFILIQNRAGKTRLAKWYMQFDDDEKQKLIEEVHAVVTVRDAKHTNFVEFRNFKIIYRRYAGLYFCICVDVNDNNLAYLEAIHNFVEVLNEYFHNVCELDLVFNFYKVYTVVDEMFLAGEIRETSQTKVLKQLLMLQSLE
UniProt Q5VTE6: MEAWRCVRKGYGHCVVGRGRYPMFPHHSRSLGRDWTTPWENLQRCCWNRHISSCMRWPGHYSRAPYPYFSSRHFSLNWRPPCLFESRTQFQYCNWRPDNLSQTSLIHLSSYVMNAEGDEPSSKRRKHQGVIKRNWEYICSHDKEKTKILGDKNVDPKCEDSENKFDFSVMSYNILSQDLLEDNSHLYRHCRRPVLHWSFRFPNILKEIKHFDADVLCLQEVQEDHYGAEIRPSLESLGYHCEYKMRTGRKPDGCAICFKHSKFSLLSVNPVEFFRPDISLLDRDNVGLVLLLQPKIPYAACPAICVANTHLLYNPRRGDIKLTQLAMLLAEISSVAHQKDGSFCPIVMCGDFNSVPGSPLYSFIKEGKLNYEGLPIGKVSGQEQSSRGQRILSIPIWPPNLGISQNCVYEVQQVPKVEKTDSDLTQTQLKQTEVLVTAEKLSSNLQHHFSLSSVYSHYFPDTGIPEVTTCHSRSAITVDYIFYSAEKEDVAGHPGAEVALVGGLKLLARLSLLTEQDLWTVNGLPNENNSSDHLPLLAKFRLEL
UniProt Q13367: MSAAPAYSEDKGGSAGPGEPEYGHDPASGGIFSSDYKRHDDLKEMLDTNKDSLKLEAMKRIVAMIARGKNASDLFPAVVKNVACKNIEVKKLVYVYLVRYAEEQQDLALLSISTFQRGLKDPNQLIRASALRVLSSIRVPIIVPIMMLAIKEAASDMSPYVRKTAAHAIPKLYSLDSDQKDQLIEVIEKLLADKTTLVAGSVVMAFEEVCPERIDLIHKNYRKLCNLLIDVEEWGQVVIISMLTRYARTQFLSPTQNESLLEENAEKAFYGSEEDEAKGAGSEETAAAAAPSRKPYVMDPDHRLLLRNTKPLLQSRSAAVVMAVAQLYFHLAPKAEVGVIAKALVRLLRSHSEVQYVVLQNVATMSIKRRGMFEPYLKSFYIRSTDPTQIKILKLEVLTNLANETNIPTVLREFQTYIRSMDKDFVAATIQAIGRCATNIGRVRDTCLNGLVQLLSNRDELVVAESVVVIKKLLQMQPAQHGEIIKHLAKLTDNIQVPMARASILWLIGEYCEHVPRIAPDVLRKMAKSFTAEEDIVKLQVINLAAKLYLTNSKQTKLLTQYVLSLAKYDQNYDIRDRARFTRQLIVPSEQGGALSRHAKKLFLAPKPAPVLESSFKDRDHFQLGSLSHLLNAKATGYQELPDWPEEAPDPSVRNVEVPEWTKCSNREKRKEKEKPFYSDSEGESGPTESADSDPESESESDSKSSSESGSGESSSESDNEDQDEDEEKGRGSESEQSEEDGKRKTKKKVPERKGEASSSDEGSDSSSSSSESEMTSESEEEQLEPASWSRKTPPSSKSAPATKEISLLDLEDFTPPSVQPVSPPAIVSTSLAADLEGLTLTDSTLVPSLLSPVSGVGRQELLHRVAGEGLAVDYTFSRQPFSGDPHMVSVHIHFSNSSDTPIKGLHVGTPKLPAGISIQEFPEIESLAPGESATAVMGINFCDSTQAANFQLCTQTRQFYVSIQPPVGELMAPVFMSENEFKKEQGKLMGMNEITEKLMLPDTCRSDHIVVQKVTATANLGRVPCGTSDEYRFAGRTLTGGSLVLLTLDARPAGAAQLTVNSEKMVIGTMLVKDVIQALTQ

Some of the results follow.

Compound in one experiment: CC1=C(C2=C(C=C1)C(=O)C3=CC=CC=C3N2CCCN)C
Nature of the experiment: log2 fold change, soluble protein after heating vs DMSO (PISA); higher = thermal stabilisation; K562 lysate, 10 uM; active = over 0.2 and 3.5 SD of the protein, either way, in both replicates (recomputed). The procedure, abridged: (§1)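 Quantification was by TMTpro 16plex LC-MS/MS with equalised channel sums, applied to the supernatant after 21,000xg for 90 min. Samples were crude K562 extract at 1 mg/mL protein in PBS pH 7.4 with 1 mM MgCl2, treated with 10 μM compound for 30 min, heated for 3 min across 48°C-58°C, pooled and brought to 0.5% NP-40 at 4°C. Values are log-two fold changes in thermal stability relative to solvent controls, from duplicates.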
For the target ANKRD54 (UniProt Q6NXT1), the log2 fold change was inactive: 0.001.

ALDH6A1 (UniProt Q02252): the log2 fold change is inactive: -0.191.

For ALKBH3 (UniProt Q96Q83), the log2 fold change is inactive: -0.031.

For the target AMD1 (UniProt P17707), the log2 fold change is inactive: -0.015.

With ANPEP (UniProt P15144), the log2 fold change was inactive: -0.037.

Consider ANXA11 (UniProt P50995), for which the log2 fold change is inactive: 0.023.

Regarding ALDH1A1 (UniProt P00352), the log2 fold change is active: 0.26.

For ALDH1B1 (UniProt P30837), the log2 fold change is inactive: -0.005.

On to ANK1 isoform 14 (UniProt P16157), for which the log2 fold change was inactive: -0.035.

In the case of AP3S1 (UniProt Q92572), the log2 fold change was inactive: 0.012.

ANKRD28 (UniProt O15084): the log2 fold change was inactive: 0.007.

ALS2 (UniProt Q96Q42): the log2 fold change was inactive: -0.026.

Take ANTXR2 isoform 4 (UniProt P58335): the log2 fold change is inactive: -0.011.

For ANAPC4 isoform 3 (UniProt Q9UJX5), the log2 fold change is inactive: -0.003.

On to ALMS1 (UniProt Q8TCU4), for which the log2 fold change is inactive: -0.073.

With AKT1S1 isoform 3 (UniProt Q96B36), the log2 fold change is inactive: -0.007.

On to ALDH18A1 (UniProt P54886), for which the log2 fold change is inactive: 0.001.

AP2S1 (UniProt P53680): the log2 fold change is inactive: 0.03.

Turning to AP3D1 isoform 5 (UniProt O14617), the log2 fold change is inactive: -0.024.

As to AP1B1 (UniProt Q10567), the log2 fold change is inactive: 0.019.

Take ALG2 (UniProt Q9H553): the log2 fold change is inactive: -0.09.

Take ALDH2 (UniProt P05091): the log2 fold change was inactive: 0.014.

Take ANP32B (UniProt Q92688): the log2 fold change was inactive: -0.008.

For the target AP1G2 (UniProt O75843), the log2 fold change is inactive: -0.156.

With ANGEL2 (UniProt Q5VTE6), the log2 fold change was inactive: -0.033.

For the target ANKRD13A (UniProt Q8IZ07), the log2 fold change was inactive: -0.015.

On to ALDH1L2 (UniProt Q3SY69), for which the log2 fold change was inactive: -0.022.

Take ALAD (UniProt P13716): the log2 fold change was inactive: -0.022.

For the target AP3B2 isoform 4 (UniProt Q13367), the log2 fold change is inactive: 0.003.

As for ANAPC2 (UniProt Q9UJX6), the log2 fold change is inactive: -0.025.

ALDH1A2 (UniProt O94788): the log2 fold change is inactive: 0.022.

For ANXA3 (UniProt P12429), the log2 fold change is inactive: 0.002.

Turning to ANKRD27 (UniProt Q96NW4), the log2 fold change was inactive: -0.014.

In the case of ANAPC10 (UniProt Q9UM13), the log2 fold change is inactive: -0.001.

Consider ALG1 (UniProt Q9BT22), for which the log2 fold change is inactive: 0.005.

Compound in the next experiment: CC1=C(C=C(C=C1)NC(=O)C2=CC(=CC=C2)C(C)(C)C#N)NC3=CC4=C(C=C3)N=CN(C4=O)C
The description is as above. Put shortly:
as §1
ANKRD54 (UniProt Q6NXT1): the log2 fold change is inactive: -0.006.

Consider ALDH6A1 (UniProt Q02252), for which the log2 fold change was inactive: 0.025.

Regarding ALKBH3 (UniProt Q96Q83), the log2 fold change was inactive: -0.045.

Turning to AMD1 (UniProt P17707), the log2 fold change is inactive: 0.155.

For the target ANPEP (UniProt P15144), the log2 fold change was inactive: -0.017.

For the target ANXA11 (UniProt P50995), the log2 fold change is inactive: -0.041.

Turning to ALDH1A1 (UniProt P00352), the log2 fold change is inactive: -0.005.

Consider ALDH1B1 (UniProt P30837), for which the log2 fold change was inactive: -0.018.

Take ANK1 isoform 14 (UniProt P16157): the log2 fold change is inactive: -0.034.

On to AP3S1 (UniProt Q92572), for which the log2 fold change was inactive: -0.001.

In the case of ANKRD28 (UniProt O15084), the log2 fold change was inactive: 0.002.

On to ALS2 (UniProt Q96Q42), for which the log2 fold change is inactive: -0.024.

On to ANTXR2 isoform 4 (UniProt P58335), for which the log2 fold change was inactive: 0.036.

Take ANAPC4 isoform 3 (UniProt Q9UJX5): the log2 fold change is inactive: 0.049.

For ALMS1 (UniProt Q8TCU4), the log2 fold change is inactive: 0.181.

On to AKT1S1 isoform 3 (UniProt Q96B36), for which the log2 fold change is inactive: 0.02.

As for ALDH18A1 (UniProt P54886), the log2 fold change is inactive: 0.022.

For AP2S1 (UniProt P53680), the log2 fold change was inactive: -0.003.

Regarding AP3D1 isoform 5 (UniProt O14617), the log2 fold change is inactive: 0.011.

Consider AP1B1 (UniProt Q10567), for which the log2 fold change was inactive: 0.028.

In the case of ALG2 (UniProt Q9H553), the log2 fold change is inactive: -0.009.

For ALDH2 (UniProt P05091), the log2 fold change was inactive: -0.081.

As to ANP32B (UniProt Q92688), the log2 fold change was inactive: 0.005.

In the case of AP1G2 (UniProt O75843), the log2 fold change was inactive: -0.011.

Take ANGEL2 (UniProt Q5VTE6): the log2 fold change is inactive: -0.065.

For ANKRD13A (UniProt Q8IZ07), the log2 fold change was inactive: -0.005.

For ALDH1L2 (UniProt Q3SY69), the log2 fold change is inactive: -0.028.

Consider ALAD (UniProt P13716), for which the log2 fold change is inactive: 0.025.

Take AP3B2 isoform 4 (UniProt Q13367): the log2 fold change was inactive: -0.009.

In the case of ANAPC2 (UniProt Q9UJX6), the log2 fold change is inactive: 0.004.

In the case of ALDH1A2 (UniProt O94788), the log2 fold change was inactive: -0.017.

Take ANXA3 (UniProt P12429): the log2 fold change is inactive: -0.015.

For the target ANKRD27 (UniProt Q96NW4), the log2 fold change is inactive: 0.089.

Take ANAPC10 (UniProt Q9UM13): the log2 fold change is inactive: 0.041.

Turning to ALG1 (UniProt Q9BT22), the log2 fold change is inactive: 0.
